We go through three substances from patent US5298488A (Fuji Photo Film Co., Ltd., priority 1990, dated 1994).

The nature of series [1]: solution-phase peptide synthesis; DCC; DCC/HOBt (solution phase). Conditions: coupling step.
Series [2] in a line: general procedure: Boc solid-phase peptide synthesis; DCC; DCC/HOBt (solution phase). The note with it: late stage modification step, hydrochloride.
A short description of series [3]: Boc solid-phase peptide synthesis; DCC; DCC/HOBt (solution phase). The note with it: whole synthesis.

In series [1], BocGlyAsp(Obzl)Ser((Bzl)GlyNH2 returned a step yield of 84%. Consider “Arg-Gly-Asp-Ser-Gly-NH2 (RGDS; conjugated to itaconyl CM-chitin)”, for which the step yield in series [2] was determined as 86%. For the substance “H-(Gly-Arg-Gly-Asp-Ser-Pro)-OH (RGDS; conjugated to trimellityl CM-chitin)”, the isolated yield in series [3] stood at 25%.
